Results from paper PMC10592355.
No constants are given. Whether binding was seen depends on the method and setting. Binding seen in cells or lysates may run through a third protein. A yes stands for co-enrichment or nearness to the bait. Other partners may have been found. Tags and fused reporters may be left off the sequences shown.

Sequences of proteins named here, by UniProt entry; tags and fusion partners are left off.
UniProt Q14839: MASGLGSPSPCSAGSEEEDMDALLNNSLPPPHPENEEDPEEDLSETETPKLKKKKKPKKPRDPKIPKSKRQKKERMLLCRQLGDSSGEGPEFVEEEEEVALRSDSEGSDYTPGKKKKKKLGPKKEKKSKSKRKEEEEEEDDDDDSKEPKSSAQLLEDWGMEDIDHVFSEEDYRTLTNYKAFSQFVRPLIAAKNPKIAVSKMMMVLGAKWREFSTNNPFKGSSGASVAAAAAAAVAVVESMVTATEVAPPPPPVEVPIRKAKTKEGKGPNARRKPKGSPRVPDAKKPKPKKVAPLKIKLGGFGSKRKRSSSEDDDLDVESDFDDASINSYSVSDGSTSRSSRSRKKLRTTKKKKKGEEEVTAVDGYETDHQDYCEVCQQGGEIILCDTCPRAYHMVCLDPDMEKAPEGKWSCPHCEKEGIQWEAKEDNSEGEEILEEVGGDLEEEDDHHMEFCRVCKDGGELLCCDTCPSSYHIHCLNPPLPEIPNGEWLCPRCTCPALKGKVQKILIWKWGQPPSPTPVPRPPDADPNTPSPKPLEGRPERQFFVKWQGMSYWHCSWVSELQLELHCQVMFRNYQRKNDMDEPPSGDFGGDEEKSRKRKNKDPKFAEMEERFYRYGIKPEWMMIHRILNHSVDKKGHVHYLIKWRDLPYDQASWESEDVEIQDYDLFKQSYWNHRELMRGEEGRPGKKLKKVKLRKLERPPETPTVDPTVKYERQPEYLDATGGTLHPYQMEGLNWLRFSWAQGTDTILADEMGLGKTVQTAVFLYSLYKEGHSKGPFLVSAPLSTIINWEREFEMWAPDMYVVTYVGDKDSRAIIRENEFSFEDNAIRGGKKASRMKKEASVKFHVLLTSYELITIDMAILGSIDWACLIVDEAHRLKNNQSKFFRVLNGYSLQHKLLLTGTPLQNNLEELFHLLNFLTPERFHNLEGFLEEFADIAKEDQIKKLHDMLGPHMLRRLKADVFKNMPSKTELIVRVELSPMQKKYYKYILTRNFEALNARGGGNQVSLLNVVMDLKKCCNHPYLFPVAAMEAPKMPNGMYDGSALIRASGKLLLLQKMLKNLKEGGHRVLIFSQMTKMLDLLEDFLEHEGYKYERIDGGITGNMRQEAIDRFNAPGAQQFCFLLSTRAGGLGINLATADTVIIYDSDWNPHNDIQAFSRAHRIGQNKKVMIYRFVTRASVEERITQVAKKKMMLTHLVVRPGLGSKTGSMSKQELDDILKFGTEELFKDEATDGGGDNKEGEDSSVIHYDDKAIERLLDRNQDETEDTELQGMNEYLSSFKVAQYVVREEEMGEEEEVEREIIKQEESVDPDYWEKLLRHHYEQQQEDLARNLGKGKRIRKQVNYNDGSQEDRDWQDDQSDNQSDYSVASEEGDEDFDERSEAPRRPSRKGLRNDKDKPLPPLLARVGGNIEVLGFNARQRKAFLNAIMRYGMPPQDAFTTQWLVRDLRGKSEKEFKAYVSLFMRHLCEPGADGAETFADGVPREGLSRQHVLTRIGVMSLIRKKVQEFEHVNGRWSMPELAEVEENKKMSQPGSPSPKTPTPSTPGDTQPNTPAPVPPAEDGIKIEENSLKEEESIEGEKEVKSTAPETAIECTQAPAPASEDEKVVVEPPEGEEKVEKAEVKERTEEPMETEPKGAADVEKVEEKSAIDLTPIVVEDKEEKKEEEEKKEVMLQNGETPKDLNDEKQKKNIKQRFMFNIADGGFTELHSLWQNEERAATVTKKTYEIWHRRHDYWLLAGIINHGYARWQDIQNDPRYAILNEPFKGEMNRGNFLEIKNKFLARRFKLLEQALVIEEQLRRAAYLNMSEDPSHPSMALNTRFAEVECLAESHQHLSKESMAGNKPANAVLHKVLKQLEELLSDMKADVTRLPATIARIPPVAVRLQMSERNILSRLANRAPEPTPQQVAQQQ
UniProt Q92769: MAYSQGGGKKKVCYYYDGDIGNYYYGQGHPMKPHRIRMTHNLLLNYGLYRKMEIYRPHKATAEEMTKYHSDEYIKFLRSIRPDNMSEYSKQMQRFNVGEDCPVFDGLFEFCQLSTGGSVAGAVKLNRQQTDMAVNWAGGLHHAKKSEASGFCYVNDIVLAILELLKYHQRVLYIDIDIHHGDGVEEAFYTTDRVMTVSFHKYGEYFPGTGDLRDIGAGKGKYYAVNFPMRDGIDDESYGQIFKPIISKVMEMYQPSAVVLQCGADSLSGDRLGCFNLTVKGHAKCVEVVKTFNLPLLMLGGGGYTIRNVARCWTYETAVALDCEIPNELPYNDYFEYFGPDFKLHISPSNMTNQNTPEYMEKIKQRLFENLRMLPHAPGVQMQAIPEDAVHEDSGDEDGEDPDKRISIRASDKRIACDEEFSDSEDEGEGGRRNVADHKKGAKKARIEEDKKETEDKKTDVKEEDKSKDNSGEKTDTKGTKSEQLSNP
UniProt Q13263: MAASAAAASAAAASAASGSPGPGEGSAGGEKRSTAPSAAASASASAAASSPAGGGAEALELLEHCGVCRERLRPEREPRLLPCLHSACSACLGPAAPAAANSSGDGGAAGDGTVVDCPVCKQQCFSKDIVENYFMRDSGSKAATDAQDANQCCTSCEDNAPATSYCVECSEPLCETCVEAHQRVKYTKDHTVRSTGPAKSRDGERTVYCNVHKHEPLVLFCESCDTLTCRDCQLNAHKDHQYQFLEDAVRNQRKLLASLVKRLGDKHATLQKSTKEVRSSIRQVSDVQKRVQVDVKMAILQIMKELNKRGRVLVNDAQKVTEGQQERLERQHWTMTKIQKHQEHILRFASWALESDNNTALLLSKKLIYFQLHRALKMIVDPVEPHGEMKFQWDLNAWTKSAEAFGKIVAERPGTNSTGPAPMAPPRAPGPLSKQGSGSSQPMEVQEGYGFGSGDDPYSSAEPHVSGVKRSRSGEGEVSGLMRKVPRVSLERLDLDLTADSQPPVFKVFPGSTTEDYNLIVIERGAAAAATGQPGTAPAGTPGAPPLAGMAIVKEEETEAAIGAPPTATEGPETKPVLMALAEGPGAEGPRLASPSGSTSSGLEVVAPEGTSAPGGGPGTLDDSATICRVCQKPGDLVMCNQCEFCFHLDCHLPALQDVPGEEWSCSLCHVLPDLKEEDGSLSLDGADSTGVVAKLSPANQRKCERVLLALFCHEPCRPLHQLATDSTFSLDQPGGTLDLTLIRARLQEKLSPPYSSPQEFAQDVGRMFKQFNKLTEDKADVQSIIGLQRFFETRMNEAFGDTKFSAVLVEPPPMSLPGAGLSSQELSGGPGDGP

Target: T1, TyrRS fused with a streptavidin-binding peptide (SBP) and a calmodulin-binding peptide (CBP) (human) (UniProt P54577)
T1 sequence: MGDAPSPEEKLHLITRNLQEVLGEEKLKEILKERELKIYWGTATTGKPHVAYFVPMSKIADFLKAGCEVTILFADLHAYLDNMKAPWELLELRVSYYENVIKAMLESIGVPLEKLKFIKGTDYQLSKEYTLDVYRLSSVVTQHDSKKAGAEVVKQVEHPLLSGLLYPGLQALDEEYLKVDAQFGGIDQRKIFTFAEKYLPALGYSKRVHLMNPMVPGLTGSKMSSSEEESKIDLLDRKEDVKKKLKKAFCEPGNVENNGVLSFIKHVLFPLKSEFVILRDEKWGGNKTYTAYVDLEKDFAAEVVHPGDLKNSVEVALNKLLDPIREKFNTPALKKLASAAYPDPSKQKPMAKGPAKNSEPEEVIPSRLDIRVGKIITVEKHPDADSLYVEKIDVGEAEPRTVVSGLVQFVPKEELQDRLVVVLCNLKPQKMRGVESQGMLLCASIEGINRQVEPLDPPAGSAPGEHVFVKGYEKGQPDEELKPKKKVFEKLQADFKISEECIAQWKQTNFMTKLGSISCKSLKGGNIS
Test: affinity purification with mass spectrometry; tandem affinity purification (TAP-MS): whole cell lysate of HEK293 cells expressing TyrRS with SBP and CBP tags on Streptavidin resin, eluate then on Calmodulin resin; final eluate analysed by mass spectrometry

binding | Substance
binds | CHD4 (from UniProt Q14839 1-1912)
binds | HDAC2 (from UniProt Q92769 1-488)
binds | TRIM28 (from UniProt Q13263 1-835)
